Data on eight sequences can be found in PMC6882875.

Where a protein sequence is shown, tags need not be part of it. For part of these data: The exact form of at least one protein or probe is not confirmed.

Series [1] deals with T1, AraQ (Bifidobacterium breve UCC2003).
T1 sequence (looked up, limits assumed): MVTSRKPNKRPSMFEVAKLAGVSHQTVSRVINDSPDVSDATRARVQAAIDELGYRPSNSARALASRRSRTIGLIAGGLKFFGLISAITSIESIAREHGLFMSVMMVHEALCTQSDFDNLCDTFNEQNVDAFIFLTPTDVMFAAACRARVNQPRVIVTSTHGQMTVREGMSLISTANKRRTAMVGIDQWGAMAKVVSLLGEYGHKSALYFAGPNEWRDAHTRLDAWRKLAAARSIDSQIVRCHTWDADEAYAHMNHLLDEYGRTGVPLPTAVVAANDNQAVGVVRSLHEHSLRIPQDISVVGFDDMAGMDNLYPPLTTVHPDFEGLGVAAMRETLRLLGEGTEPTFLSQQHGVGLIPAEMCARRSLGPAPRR
Nature of the series: EMSA. Conditions: 150 nM protein, EMSA: binding buffer stock 80 mM Tris-HCl pH 8.0, 20 mM MgCl2, 2 mM DTT, 4 mM EDTA, 400 mM KCl, 40% glycerol (final dilution not stated), poly(dI-dC) 0.05 ug/ul, recombinant protein, protein details: C-terminal His10, label: 5' IRD700, probe letters rebuilt from the primers and the genome.

Series [2] relates to T2, MalR1 (Bifidobacterium breve UCC2003).
T2 sequence (looked up): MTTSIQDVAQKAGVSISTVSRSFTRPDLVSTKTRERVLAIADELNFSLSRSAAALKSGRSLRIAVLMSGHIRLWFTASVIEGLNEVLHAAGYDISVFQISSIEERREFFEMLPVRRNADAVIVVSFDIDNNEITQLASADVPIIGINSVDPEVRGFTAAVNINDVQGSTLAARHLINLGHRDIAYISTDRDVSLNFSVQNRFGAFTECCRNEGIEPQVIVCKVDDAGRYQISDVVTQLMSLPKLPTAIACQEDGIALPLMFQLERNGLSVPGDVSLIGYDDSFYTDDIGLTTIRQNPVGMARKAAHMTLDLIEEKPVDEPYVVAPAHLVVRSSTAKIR
Nature of the series: EMSA. Conditions: 150 nM protein, EMSA: binding buffer stock 80 mM Tris-HCl pH 8.0, 20 mM MgCl2, 2 mM DTT, 4 mM EDTA, 400 mM KCl, 40% glycerol (final dilution not stated), poly(dI-dC) 0.05 ug/ul, recombinant protein, residues 1-338, protein details: C-terminal His10, label: 5' IRD700, probe letters rebuilt from the primers and the genome.

The mark [3] stands for this setting: 10 mM effectors gave no consistent change.

Regarding “CATAACAGCCCCTTTGCCTTGCAAAACGCGAAGCGGACACAACTGGCTCCAGTGTACATGGTGATTGGGCAATTTGCACAATGACAACGATTGTATTACAAACGTTTGCAGATAGTCTATTATTATGCAGAAACGTTGGAATTTAGCTATTTTGTGAAGTGAAAGATAATTGCTCTGATGGGATGTAGCTGCATGTAGAAACGCTGTAAATGACAACGTTTGACATATGGTTGTCGAGTGTTTACCATGAAGCTTAGGCTTGATTGGCGGGATTCGCGAACGTGTGTTCTGCTTGACGGGCTGGAATTGAGTTGAACTCCGCGCTCGGCGCACGATGCAGTGCAGTGTTGCGGACTCAAGGAGGAGGAAAGTCATG (double strand) [malF/malR1 intergenic region]”, the binding result in series [1] and in series [2] was “binds” in each case.

“CCACGTCACGAATAGTTGCCTTCTGCCCGTTTGCCACGTCTCCTCCTGTCGCCGATCCCACCGTTCATCCATTGTAAGGCCACAACCCATATATCTCCCATGGCAGTCGATTCGGACGAAATCCGGCTTGAAAACGTCCGAATCGACACCCATCCTGCGCCATCCGTCCGAATCAACCGCACACCGGGGACAACAACAGGGGGCAACAAACAAAGCCAGACACCACCCATACAACACAAAAAGCGCCGTCCGCGTGAAGCGGGCAGCGCTTTTGTTATCTCTCGTTACGAGCCTAGTGAAAGAATCTCACTGAACCTGGGTACGAGCGATCTTGCCGTTGAAGGACTCAGCCTCATCCTTGTCCTTGGCCTCGGCGTTGTTCCAGGAGAACATAGCGCGCAGC (double strand) [cldR promoter]”: the binding signal in series [1] (counted as no binding) and in series [2] (counted as no binding) was 0 % bound in each case.

As to “CCGGAACTTCTCGCTATCATCATGCTTTCCTCGTCTCCGGCGAACCGTCGTCTAACGCGTCGATATCGGCGTATCGCTACAGCGCGCTCGTTATGCTCACGGGTCGTGGAGCGAGCACGCAGCTTTGCGGAATATGCCCACTTCATTAGCGAAATCGGTTTTGCACACGTTGGCTTTTGGCCTCCCCGAAGTCGACTCCAAACAACCACTTACCACTGGTCGACTTCGACGTGCATCACTTCTCTCGTGTGCACAACATCATACTGCAAAGGTTGTCATTATTTCAACCCGCATGCCCTCTAATTAAGGGGGTATGGGTTCTCTTCCCGCATAGCAACAGGGGAAATACGTTGAATATGTTGACACTATACGCCGGCGTGTCGAAAACATTTACCCCCCATACGGGGGAATCTACGTATTGCATGCATATGCATTACCATCTATTCAAAGGGGAACGGCAGAGGTCAGGACCCCGCCATCGGGAATCAACAGCGAATTGTCCCATGCTATTATGCAAACGATGTCAGTATGTACAACACACCCCATGTCGGCGAATTTCCTCACCGCCGCTTTCGACACGTCACGCAGCGCGAAGCAGATTCCCGCTGCCGAGCAATCGACGGCATTACCGCCACCGGGCATGATACCGTTGTCATAGCAATGACAATCGAAACGCACACACCGACGGCGCAGCGCAACATACACAAGAACAAGGCAACACGCATCCGCACAGCAGCAGAGGATAAAGACTATGGCAAAAGCAAGCATTCAAGCG (double strand) [malR6/Bbr_0113 intergenic region]”, the binding result in series [2] is listed as “binds”.

As for “CGAACCTTTCTCTTTCATCGTCGACCCGCCCGATCTCCGGTCGGCCAGAGTGCCGTTAGCAGCACCCTCACGACTATCGACATGACCTATTGTGCAACGGTTCGCGCTTTTTTGCAAACGATGGCATTATCGGCGCGCCAAAAAGTGCTACAGAAGCATGTGCAGTTGACCAATTTCCCGATAAACCAGTCGGTTTCCGCCGGCAGCAGCAATGCAAGCGTTGGCAACAATGAGAGCGTTAACATGCAAAATCCATACCTTATGCGCGGCCATTTACCCCGTTGCGCAACACGCCGAAGCCATCGTTTGCAGAAACGATGACGCACACGCCTCGTCCGCTCACGGCTCAAAACAGAACGCAGTCACTGCATTTGCGCCAAAGAAACGTCAAGCCAGCCCGCTACGGCTCAGCTCAGGCATTCC (double strand) [malE promoter]”, the binding result in series [1] was “binds”. In series [2] (counted as no binding), the binding signal amounted to 0 % bound.

As to “CGCACCTCCTTCCACGCTGTCACCAGTGTACGTTACCTGTACCGAAATCAATCCAAAAAACAGTGTTCATGTGAAATTCACTGCGTATTTGCGGATTAAGGGGCTGCGGACATTTTCTTGGAGATAATCACGCAGCCATTCCTTGGCTTTGACGATATTGTACCGGGCTCATCCAACCAAGTGACTGTTCCCGTTGTCTATTTGTAAGTGCAACATCCTTGTTCTCGGCTGATTCTAGCGGTTCGTCGGCGAATGCCTCGGCGGGGGTGCGCTAGCCGAGCACTCGCATGGGCCTGTTGTCGGTTTCGTCGACGATCTCCTGCAGTTCGCGTGCCATGGAGGGGGCGACGGGCGTGCGTTTGGGCGGGTGGCGGCGGATCATGCCGTTCCTGTTCTCGTTGCCGCCGCGCCGCCACGAGCTGTACGGGTCGGCGAAATACGCGGCCATGCCCGGTTCGTCGCGCAACTCGGCGTGCCGACCGTGGACGCATGCCGTCCCGGCATCATGGCTATGCGGCGCACGCTCGCCCCGTTGCCCATCTCAATCTGGATGACCTGCCGTTCCTCTTCCGACAGGTGCGAATACACCTGGCCCAAGGCGCAACACCCCTCCGTTTGGCTATCCGGACAATCTCCAATCTAACGG (double strand) [glgP2 promoter]”, the binding signal in series [1] (counted as no binding) and in series [2] (counted as no binding) was 0 % bound in each case.

As to “CGCCATGATGTCTCCTTTCGCTGTGTGGTGGGCGGTGTCAGATACTGTAGCCGTGCTGGCGCCGCCGCAATCGCTGCGACGTACGCCCATGCACATTAATAGCATATATGTATGCGCTTACATTCTTTTGTACCACGATGTGCGCGTTGTTAGCGGTCACGGTTTGATTGTGTTTGCAATGGTTTACCAATGTTCTGTATTGTGCGCATGTGATGTGACGCGCAATCTGCAGGCGGCGGTTGACGGTGTGCAATGTAAGCGCTATCATTTTGTTGTGTCAATCAATGCATGGTTGATGCAGCCGGCATCCGATCCGGCAGGGCGACCGCAAGGTCGTACACGGATATGTGCATGGAGGCACGTATCACATGAGC (double strand) [malR5/malE2 intergenic region]”, the binding signal in series [1] and in series [2] was under 15 % bound in each case.

On to “CGGTTCCTACGCCAAGTAATCGCTTGACGGCTCGCAGCACTTGGCCGGCGCGGACCACTCCTCTGCACTGGCCAACCCAACCTATAACTGAATAACCAACAATCAAATATGAGGGGTCCGTAAGGTACGCCAGCTGCGGGCGGATGATGTGAAGCCGTTGCATCCGCTCGCAGCCCCTCACCTATCGACGGTTTCAACCTTCTTTGTTTCTCCTCCTTCATTGCCGGCAGAGCTCGGGCAACGTGCATGCGGTGTCCGGGCTTTGAACGGGTTTAAGCGAAGACAAACAAACAACAAGCCGGGCATCGCGGCCCGGAGCAACGGTTTCCATCATTTACAGTGAGAGGCGGTAGGGTGCGATGACAGCAGCAGCACTT (double strand) [agl4/malE1 intergenic region]”, for which the binding result in series [1] and in series [2] was “binds” throughout.

For “GAACTTCAGGCCGCCAGCGATCAAACCGATAGTACGTGAACGGCGGGAGGCCAAGGCACGAGCGGAATTGGAGGGACGATATCCAAGCTCGTCAATGGCGGCCTGCACACGGGCACGCGTGGCGTCAGACACATCCGGCGAATCGTTGATCACACGGGATACGGTCTGGTGACTGACCCCGGCGAGTTTGGCCACCTCGAACATGGATGGGCGCTTGTTTGGTTTGCGGCTGGTCACCATACTGCCCGAACCTCCCCGCTGGCGGCCGAATTCCGTGCCCGGCCGTGCTGCACCTTATTAATTATTGACTTTAGCGCGCCTGAGGCGATTTCGCGTGAGCGCTCACATTGTCGTGTCGCGAATCGGTCTGGAGCCACTGCGCTGCATGGCAATCCGCAACATCAGGTCAAATGCCAGGAAGTGCG (double strand) [araQ promoter]”, the binding result in series [1] (setting [3]) and in series [2] (setting [3]) was “binds” in each case.
